# Patent US20140350088
# Sequences of proteins named here, by UniProt entry; tags and fusion partners are left off. Residues count along the entry.
# UniProt P01275, 53-81: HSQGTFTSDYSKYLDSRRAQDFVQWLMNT
# Target: biotinylated human glucagon (Homo sapiens) (UniProt P01275)
# Test: competition with a labelled probe
# Settings: L-DNA, synthetic protein
sequence,measurement,setting,value
GCAGTGGGGAAATGGGAGGGCTAGGTGGAAGGAATCTGAGCTACTGC [257-E1-R36-001],binding result,"ribo at 36, reduced or lost vs parent, 37 C, synthetic backbone, mirror-image nucleic acid",binds more weakly
GCAGTGGGGAAATGGGAGGGCTAGGTGGAAGGAATCTGAGCTACTGC [257-E1-R16-001],binding result,"ribo at 16, reduced or lost vs parent, 37 C, synthetic backbone, mirror-image nucleic acid",binds more weakly
GCAGTGGGGAAATGGGAGGGCTAGGTGGAAGGAATCTGAGCTACTGC [257-E1-R31-001],binding result,"ribo at 31, reduced or lost vs parent, 37 C, synthetic backbone, mirror-image nucleic acid",binds more weakly
GCAGTGGGGAAATGGGAGGGCTAGGTGGAAGGAATCTGAGCTACTGC [257-E1-R10-001],binding result,"rA at 10, reduced or lost binding vs parent, mirror-image nucleic acid, variant of 257-E1-001",binds more weakly
GCAGTGGGGAAATGGGAGGGCTAGGTGGAAGGAATCTGAGCTACTGC [257-E1-R7-001],binding result,"rG at 7, reduced or lost binding vs parent, mirror-image nucleic acid, variant of 257-E1-001",binds more weakly
GCAGTGGGGAAATGGGAGGGCTAGGTGGAAGGAATCUGAGCTACTGC [257-E1-R37-001],binding result,"rU at 37, reduced or lost vs parent, 37 C, synthetic backbone, mirror-image nucleic acid",binds more weakly
GCAGTGGGGAAATGGGAGGGCTAGGTGGAAGGAATCTGAGCTACTGC [257-E1-R18/29/30-001],binding result,"rG at 18, rA at 29, 30, better than R29/30, weaker than R15/29/30, mirror-image nucleic acid, variant of 257-E1-001",binds
GCAGTGGGGAAATGGGAGGGCTAGGTGGAAGGAATCTGAGCTACTGC [257-E1-R12-001],binding result,"ribo at 12, reduced or lost vs parent, 37 C, synthetic backbone, mirror-image nucleic acid",binds more weakly
GCAGTGGGGAAATGGGAGGGCTAGGTGGAAGGAATCTGAGCTACTGC [257-E1-R6-001],binding result,"rG at 6, reduced or lost binding vs parent, mirror-image nucleic acid, variant of 257-E1-001",binds more weakly
GCAGTGGGGAAATGGGAGGGCTAGGTGGAAGGAATCTGAGCTACTGC [257-E1-R29/30-001],binding result,"rA at 29, 30, better than single substitutions, mirror-image nucleic acid, variant of 257-E1-001",binds
GCAGTGGGGAAATGGGAGGGCTAGGTGGAAGGAATCTGAGCTACTGC [257-E1-R20-001],binding result,"ribo at 20, reduced or lost vs parent, 37 C, synthetic backbone, mirror-image nucleic acid",binds more weakly
GCAGTGGGGAAATGGGAGGGCTAGGTGGAAGGAATCTGAGCTACTGC [257-E1-6xR-001],binding result,"rG at 9, 15, 18, 19, rA at 29, 30, better than R15/29 and R15/18/29/30, mirror-image nucleic acid, variant of 257-E1-001",binds
GCAGTGGGGAAATGGGAGGGCTAGGTGGAAGGAATCTGAGCTACTGC [257-E1-R9-001],binding result,"rG at 9, improved vs parent, competitive pull-down, mirror-image nucleic acid, variant of 257-E1-001",binds
GCAGTGGGGAAATGGGAGGGCTAGGTGGAAGGAATCTGAGCTACTGC [257-E1-R28-001],binding result,"ribo at 28, reduced or lost vs parent, 37 C, synthetic backbone, mirror-image nucleic acid",binds more weakly
GCAGTGGGGAAATGGGAGGGCTAGGTGGAAGGAATCTGAGCTACTGC [257-E1-R47-001],binding result,"ribo at 47, reduced or lost vs parent, 37 C, synthetic backbone, mirror-image nucleic acid",binds more weakly
GCAGUGGGGAAATGGGAGGGCTAGGTGGAAGGAATCTGAGCTACTGC [257-E1-R5-001],binding result,"rU at 5, printed as 257-E5-R1-001 (position 5), reduced or lost, 37 C, 1 mM Mg, 1 mM Ca, synthetic backbone, mirror-image nucleic …",binds more weakly
GCAGTGGGGAAATGGGAGGGCTAGGTGGAAGGAATCTGAGCTACTGC [257-E1-R3-001],binding result,"rA at 3, reduced or lost binding vs parent, mirror-image nucleic acid, variant of 257-E1-001",binds more weakly
GCAGTGGGGAAATGGGAGGGCTAGGTGGAAGGAATCTGAGCTACTGC [257-E1-R33-001],binding result,"ribo at 33, reduced or lost vs parent, 37 C, synthetic backbone, mirror-image nucleic acid",binds more weakly
GCAGTGGGGAAATGGGAGGGCTAGGTGGAAGGAATCTGAGCTACUGC [257-E1-R45-001],binding result,"rU at 45, reduced or lost vs parent, 37 C, synthetic backbone, mirror-image nucleic acid",binds more weakly
GCAGTGGGGAAATGGGAGGGCTAGGTGGAAGGAATCTGAGCTACTGC [257-E1-R15-001],binding result,"rG at 15, improved vs parent, among best, competitive pull-down, mirror-image nucleic acid, variant of 257-E1-001",binds
GCGCGGGGAAATGGGAGGGCTAGGTGGAAGGAATCTGAGCCGCGC [257-E1-7xR-023],binding signal,"rG at 8, 14, 17, 18, rT (5-methyl-uridine) at 25, rA at 28, 29 (own numbering), affinity improved vs 257-E1-001, competitive pull-down 37 C, mirror-image nucleic acid, variant of 257-E1-001",43 fold
GCAGTGGGGAAATGGGAGGGCTAGGTGGAAGGAATCTGAGCTACTGC [257-E1-R15/18/29/30-001],binding result,"rG at 15, 18, rA at 29, 30, no further improvement over R15/29/30, mirror-image nucleic acid, variant of 257-E1-001",binds
GCAGTGGGGAAATGGGAGGGCUAGGTGGAAGGAATCTGAGCTACTGC [257-E1-R22-001],binding result,"rU at 22, reduced or lost vs parent, 37 C, synthetic backbone, mirror-image nucleic acid",binds more weakly
GCAGTGGGGAAATGGGAGGGCTAGGTGGAAGGAATCTGAGCTACTGC [257-E1-R11-001],binding result,"ribo at 11, reduced or lost vs parent, 37 C, synthetic backbone, mirror-image nucleic acid",binds more weakly
GCAGTGGGGAAATGGGAGGGCTAGGTGGAAGGAATCTGAGCTACTGC [257-E1-R14-001],binding result,"ribo at 14, reduced or lost vs parent, 37 C, synthetic backbone, mirror-image nucleic acid",binds more weakly
GCAGTGGGGAAATGGGAGGGCTAGGTGGAAGGAATCTGAGCTACTGC [257-E1-R24-001],binding result,"ribo at 24, reduced or lost vs parent, 37 C, synthetic backbone, mirror-image nucleic acid",binds more weakly
GCAGTGGGGAAATGGGAGGGCTAGGTGGAAGGAATCTGAGCTACTGC [257-E1-R34-001],binding result,"ribo at 34, reduced or lost vs parent, 37 C, synthetic backbone, mirror-image nucleic acid",binds more weakly
GCAGTGGGGAAATGGGAGGGCTAGGTGGAAGGAATCTGAGCTACTGC [257-E1-R19-001],binding result,"rG at 19, improved vs parent, competitive pull-down, mirror-image nucleic acid, variant of 257-E1-001",binds
GCAGTGGGGAAATGGGAGGGCTAGGTGGAAGGAATCTGAGCTACTGC [257-E1-R18-001],binding result,"rG at 18, improved vs parent, competitive pull-down, mirror-image nucleic acid, variant of 257-E1-001",binds
GCAGTGGGGAAATGGGAGGGCTAGGTGGAAGGAATCTGAGCUACTGC [257-E1-R42-001],binding result,"rU at 42, reduced or lost vs parent, 37 C, synthetic backbone, mirror-image nucleic acid",binds more weakly
GCAGTGGGGAAATGGGAGGGCTAGGTGGAAGGAATCTGAGCTACTGC [257-E1-R38-001],binding result,"ribo at 38, reduced or lost vs parent, 37 C, synthetic backbone, mirror-image nucleic acid",binds more weakly
GCAGTGGGGAAATGGGAGGGCTAGGTGGAAGGAATCTGAGCTACTGC [257-E1-R29-001],binding result,"rA at 29, improved vs parent, among best, competitive pull-down, mirror-image nucleic acid, variant of 257-E1-001",binds
GCAGTGGGGAAATGGGAGGGCTAGGTGGAAGGAATCTGAGCTACTGC [257-E1-R15/29/30-001],binding result,"rG at 15, rA at 29, 30, better than R29/30, comparable to R15/29, mirror-image nucleic acid, variant of 257-E1-001",binds
GCAGTGGGGAAATGGGAGGGCTAGGTGGAAGGAATCTGAGCTACTGC [257-E1-R17-001],binding result,"ribo at 17, reduced or lost vs parent, 37 C, synthetic backbone, mirror-image nucleic acid",binds more weakly
GCAGTGGGGAAATGGGAGGGCTAGGTGGAAGGAATCTGAGCTACTGC [257-E1-R1-001],binding result,"rG at 1, reduced or lost binding vs parent, mirror-image nucleic acid, variant of 257-E1-001",binds more weakly
GCAGTGGGGAAATGGGAGGGCTAGGTGGAAGGAATCTGAGCTACTGC [257-E1-R15/29-001],binding result,"rG at 15, rA at 29, better than single substitutions, mirror-image nucleic acid, variant of 257-E1-001",binds
GCAGTGGGGAAATGGGAGGGCTAGGTGGAAGGAATCTGAGCTACTGC [257-E1-R21-001],binding result,"ribo at 21, reduced or lost vs parent, 37 C, synthetic backbone, mirror-image nucleic acid",binds more weakly
GCAGTGGGGAAATGGGAGGGCTAGGTGGAAGGAATCTGAGCTACTGC [257-E1-R4-001],binding result,"ribo at 4, printed as 257-E4-R1-001 (position 4), reduced or lost, 37 C, 1 mM Mg, 1 mM Ca, synthetic backbone, mirror-image nucleic acid",binds more weakly
GCAGTGGGGAAATGGGAGGGCTAGGTGGAAGGAATCTGAGCTACTGC [257-E1-R39-001],binding result,"ribo at 39, reduced or lost vs parent, 37 C, synthetic backbone, mirror-image nucleic acid",binds more weakly
GCAGTGGGGAAATGGGAGGGCTAGGTGGAAGGAATCTGAGCTACTGC [257-E1-R44-001],binding result,"ribo at 44, reduced or lost vs parent, 37 C, synthetic backbone, mirror-image nucleic acid",binds more weakly
GCAGTGGGGAAATGGGAGGGCTAGGTGGAAGGAATCTGAGCTACTGC [257-E1-R27-001],binding result,"ribo at 27, reduced or lost vs parent, 37 C, synthetic backbone, mirror-image nucleic acid",binds more weakly
GCAGTGGGGAAATGGGAGGGCTAGGTGGAAGGAATCTGAGCTACTGC [257-E1-R41-001],binding result,"ribo at 41, reduced or lost vs parent, 37 C, synthetic backbone, mirror-image nucleic acid",binds more weakly
GCAGTGGGGAAATGGGAGGGCTAGGTGGAAGGAATCTGAGCTACTGC [257-E1-R2-001],binding result,"rC at 2, reduced or lost binding vs parent, mirror-image nucleic acid, variant of 257-E1-001",binds more weakly
GCAGTGGGGAAATGGGAGGGCTAGGTGGAAGGAATCTGAGCTACTGC [257-E1-R32-001],binding result,"ribo at 32, reduced or lost vs parent, 37 C, synthetic backbone, mirror-image nucleic acid",binds more weakly

# The exact form of at least one protein or probe is not confirmed. Weaker means in comparison with the reference protein, sequence or condition of that experiment. The direction of at least one scale is not stated here.
